# The campaign covered roughly 360,000 compounds. About 7,500 (2.1%) were called active. The shares of active, inactive and inconclusive entries below differ from those in the screen. Calls come from the whole dose curve; as a rule, active = well fitted inhibition curve with a large enough effect; inconclusive = small, poorly fitted or top-dose-only effect, or effect the other way; inactive = flat fitted curve, though single readings scatter. Potencies beside an inconclusive call are fits to weak or partial responses and may not hold up.
# Assay: Nrf2 qHTS screen for inhibitors; note: nearly all actives have a fitted effect of over 60% in size
# Details: A549 ARE-Fluc reporter, luciferase luminescence, 18-24 h; activity change, negative = inhibition: at 46 µM (top of the series)
# Procedure, shortened: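 A549 ARE_Fluc cells (5000/well, 5% FBS OPTI-MEM) pre-incubated 2 h, then treated with compounds 18-24 h at 37C/5% CO2 in concentration-response. CellTiter-Fluor viability read first; BugLite luciferase luminescence after 15 min at room temperature gives Nrf2 activity.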
# % is set by controls: 0 for no effect and ±100 for the full control effect; potency is the fitted concentration of half-maximal effect.
SMILES,Potency,"activity change, negative = inhibition"
COc1ccc(C(C)=O)cc1CSc1nnc(-c2ccc(Cl)cc2)n1-c1ccccc1,"inconclusive: 29.1 µM [falling, single point]",–
CCc1ccc(-n2nc(CO)c(C(=O)NCCCc3ccccc3)n2)cc1,–,inactive: 21.6%
CCOc1ccc2nc(Cl)c(C3CC(c4ccccc4)=NN3C(=O)c3cccs3)cc2c1 (configuration not stated),"inconclusive: 2.59 µM [activator, full curve]",–
Cc1ccc(C)c(S(=O)(=O)c2nnn3c2nc(NC2CCCCC2)c2sccc23)c1,"inconclusive: 29.1 µM [falling, single point]",–
C/C(=N\Nc1ccccc1[N+](=O)[O-])c1ccc(N2CCOCC2)cc1,"inconclusive: 11.6 µM [activator, partial curve]",–
COc1ccccc1/C=C/C(=O)Nc1cccnc1Cl,"inconclusive: 18.4 µM [activator, partial curve, poor fit]",–
Cc1ccc(C)c(N2CCN(C(=O)NCc3noc4ccc(C)cc34)CC2)c1,"inconclusive: 18.4 µM [falling, single point]",–
COc1ccc(-c2nc(N3CCOCC3)nc3n[nH]c(N)c23)cc1,"inconclusive: 18.4 µM [falling, single point]",–
Cc1ccc(-n2nc3c(=O)n(CC(=O)NCCCc4ccccc4)nc(C)c3c2C)cc1,"inconclusive: 23.1 µM [falling, single point]",–
Cc1nnc(N=c2ssnc2Cl)o1,–,inactive: 0.252%
Cc1ccc(C)c(S(=O)(=O)NC2CCSC2=O)c1 (configuration not stated),"inconclusive: 0.184 µM [falling, partial curve, poor fit]",–
CCCCn1nnnc1SCC(=O)NC1CCCCC1,"inconclusive: 16.4 µM [activator, partial curve, poor fit]",–
O=C(CN1CCC(Cc2ccccc2)CC1)NCCc1ccc(F)cc1,"inconclusive: 29.1 µM [falling, single point]",–
COCCNC(=O)c1cc2oc3ccccc3c2n1C,–,inactive: 4.57%
COc1cc(OC)cc(-c2c(C#Cc3ccsc3)c3cc(-c4ccc(OC)c(OC)c4)ccc3n2C)c1,"inconclusive: 23.1 µM [activator, single point]",–
COc1ccc(C2c3c(nc(C)[nH]c3=O)Oc3ccc4ccccc4c32)cc1OC (configuration not stated),–,inactive: -6.99%
CC(C)C(=O)Nc1cccc(COc2ccc(CN(CCc3ccccc3)C(=O)OC(C)(C)C)cc2)c1,"inconclusive: 14.6 µM [falling, partial curve]",–
Cc1ccc(S(=O)(=O)Cc2ccc(C(=O)N3CCN(c4cccc(Cl)c4)CC3)o2)cc1,"inconclusive: 0.366 µM [activator, full curve]",–
CC(C)Oc1ccc(CNC(=O)C2CCN(C(=O)N3CCOc4ccccc43)CC2)cc1,"inconclusive: 25.9 µM [falling, single point]",–
CN1OC[C@@H]2CN(C(=O)C(C)(C)C)[C@H](c3cccc(Br)c3)C[C@@H]21,"inconclusive: 29.1 µM [activator, single point]",–
COc1ccc(NC(=O)C2CCN(S(=O)(=O)c3ccc(N4CCCC4=O)cc3)CC2)cc1OC,"inconclusive: 11.6 µM [activator, partial curve, poor fit]",–

SMILES,Potency,"activity change, negative = inhibition"
CCc1cc(C(=O)Cc2ccc(F)cc2)c(O)cc1O,"inconclusive: 18.4 µM [falling, single point]",–
COc1cccc(-c2nc(CS(=O)(=O)CC(=O)Nc3ccc(C(C)=O)cc3)c(C)o2)c1,"inconclusive: 18.4 µM [falling, single point]",–
CC1=NN(C(N)=S)C(=O)C1N=Nc1ccc(Br)cc1 (configuration not stated),"inconclusive: 0.461 µM [activator, full curve, poor fit]",–
Cc1ccnc2nc(C(=O)Nc3nccs3)nn12,"inconclusive: 5.8 µM [activator, full curve]",–
CC(=O)c1ccc(S(=O)(=O)N2CCc3ccccc3C2)cc1,"inconclusive: 23.1 µM [falling, partial curve, poor fit]",–
O=C(CC1NCCNC1=O)Nc1ccc([N+](=O)[O-])cc1 (configuration not stated),"inconclusive: 29.1 µM [activator, single point]",–
Cc1ccc(NC(=O)c2cc(S(=O)(=O)N3CCc4ccccc43)cn2C)c(Cl)c1,"inconclusive: 29.1 µM [falling, single point]",–
CS(=O)(=O)NNC(=O)Cn1nnc(-c2ccc(OCc3ccccc3Cl)cc2)n1,–,inactive: 4.3%
CCS(=O)(=O)N1Cc2ccccc2CC1C(=O)Nc1nccs1 (configuration not stated),"inconclusive: 25.9 µM [activator, partial curve, poor fit]",–
Cc1cnc(C(=O)Nc2ccccc2F)cn1,"inconclusive: 3.66 µM [activator, full curve]",–
CC(C)(C)NC(=O)C1(N2C(=O)c3ccccc3C2=O)CCCC1,inconclusive: 0.0005 µM,–
O=C(c1cccc(Cl)c1)N1CCC2(CC1)NCCc1[nH]cnc12,"inconclusive: 29.1 µM [falling, single point]",–
Cc1cccc(NC(=O)CSc2nsc(SCC(=O)Nc3cccc(C)c3)c2C#N)c1,–,inactive: -1.33%
COc1ccc(NC(=O)c2c(-c3ccccc3)c(-c3ccccc3)nn(C)c2=O)cc1OC,–,inactive: 20.8%
Cc1ccc(C)c(Cn2c(=O)n(C(C)C)c(=O)c3oc4ccccc4c32)c1,"inconclusive: 18.4 µM [activator, single point]",–
Cc1nc(N2CCN(c3ccccc3)CC2)[nH]c(=O)c1C,"inconclusive: 8.2 µM [falling, partial curve]",–
COc1ccc(CCC(=O)Nc2cccc(S(=O)(=O)N3CCCCCC3)c2)cc1OC,"inconclusive: 18.4 µM [falling, single point]",–
COc1cc(OC)c(C#N)c(S(=O)(=O)Cc2ccccc2)c1,–,inactive: -25%
CC(C)N(Cc1ccccc1)C(=S)NC(=O)C1(C)CC1(Cl)Cl (configuration not stated),"inconclusive: 20.6 µM [falling, single point]",–
C=CC(=O)N1C/C(=C/c2ccccc2)C(=O)/C(=C\c2ccccc2)C1,"inconclusive: 29.1 µM [falling, single point]",–
Cc1ccccc1Cn1cc(NC(=O)c2noc3c2CC(C(C)(C)C)CC3)cn1 (configuration not stated),"inconclusive: 29.1 µM [falling, single point]",–

# Laid out differently: 2 of the compounds above.
SMILES	Potency	activity change, negative = inhibition
CCCCn1nnnc1SCC(=O)NC1CCCCC1	inconclusive: 16.4 µM [activator, partial curve, poor fit]	–
O=C(CN1CCC(Cc2ccccc2)CC1)NCCc1ccc(F)cc1	inconclusive: 29.1 µM [falling, single point]	–

# — PubChem BioAssay AID504444 (National Center for Advancing Translational Sciences (NCATS), 2011)
